Experimental data reported in publication PMC12192476.
The exact form of at least one protein or probe is not confirmed. Where cells or extracts were used, other partners may take part. For part of these data: Negatives hold for the conditions tested. For part of these data: A weaker result is weaker than the reference pair of the same experiment.

Chains of the proteins cited; added tags and fusions are not shown. Lines headed by an entry give the natural chain unless they say otherwise; changes in a name come on top.
UniProt P16220: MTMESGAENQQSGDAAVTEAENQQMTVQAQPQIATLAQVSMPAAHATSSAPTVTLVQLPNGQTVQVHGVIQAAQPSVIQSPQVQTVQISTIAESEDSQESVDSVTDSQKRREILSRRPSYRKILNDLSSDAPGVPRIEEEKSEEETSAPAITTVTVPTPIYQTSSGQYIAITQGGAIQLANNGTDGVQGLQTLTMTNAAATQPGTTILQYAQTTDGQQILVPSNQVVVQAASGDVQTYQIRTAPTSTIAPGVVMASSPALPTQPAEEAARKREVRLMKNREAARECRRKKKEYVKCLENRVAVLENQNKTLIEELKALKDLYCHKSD

What was measured:
[1] = target: CREB1 (human (HepG2, MCF-7, Caco-2 nuclear extracts)) (UniProt P16220); experiment: competition with a labelled probe; details: nuclear extract EMSA as described previously (ref 42), pH and temperature not given, protein in an extract
[2] = target: CREB1 (human (HepG2, MCF-7, Caco-2 nuclear extracts)) (UniProt P16220); experiment: EMSA; details: complex forms prevalently with allele T, nuclear extract EMSA as described previously (ref 42), pH and temperature not given, protein in an extract
[3] = target: CREB1 (human (HepG2, MCF-7, Caco-2 nuclear extracts)) (UniProt P16220); experiment: EMSA supershift; details: anti-CREB1 nearly eliminates the band and gives a supershift; nuclear extract EMSA as described previously (ref 42); pH and temperature not given; protein in an extract
[4] = 25- and 100-fold excess vs T probe, no competition, HepG2, MCF-7 extracts
[5] = weak competitor at 100-fold excess vs T probe, HepG2, MCF-7 extracts

“AGAGATTGCCTGACGTCAGAGAGCTAG (double strand) [CREB]”: binds ([1]; 25- and 100-fold excess vs T probe, strongest competitor, HepG2, MCF-7 extracts).

“AGAGATTGCCTGTGGTCAGAGAGCTAG (double strand) [CREB_mut]”: no binding [1, 4].

“ATGGCATGCGTTCCGACACAACTTCGGACAG (double strand) [SART3_A (rs2072580-A)]”: binds more weakly [2]; binds more weakly ([1]; 10- and 25-fold excess, weaker competitor than allele T, HepG2, MCF-7, Caco-2 extracts).

“ATGGCATGCGTTCCGTCACAACTTCGGACAG (double strand) [SART3_T (rs2072580-T)]”: binds [3]; binds ([1]; 10- and 25-fold excess, considerably stronger competitor than allele A, HepG2, MCF-7, Caco-2 extracts).

“CCTGTCTTTGCTCCTTGTTTGGGAAGCGAGTGGG (double strand) [FOXK1]”: no binding [1, 4].

“CGCTTGATGACTCAGCCGGAA (double strand) [AP1]”: binds more weakly [1, 5].

“GATTTCTTCCAATTAGTCACGCTTGAGTG (double strand) [PAX3]”: binds more weakly [1, 5].
